PubChem BioAssay AID504764 | Drosophila RNAi Screening Center – 2011
Test: 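Knock-downs that raise or lower a Notch target reporter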 (primary screen). System: Drosophila Kc167 cells. Knock-down reagent: long dsRNA against Drosophila genes. Timing: about 5 days (4 days dsRNA, then 24 h after transfection). Conditions: transfection of constitutively active membrane-tethered Notch lacking the extracellular domain, read 24 h later. Measurement: 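Firefly luciferase from an E(spl)m3 reporter with active Notch, plus control-promoter and uninduced reporter wells for normalisation; unnormalised counts, duplicate wells a and b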. Direction: induced reporter light, run 1, well a and induced reporter light, run 1, well b: higher = more light from the Notch target reporter with active Notch; control promoter light, run 1, well a and control promoter light, run 1, well b: higher = more light from the viral control promoter (cell number, transfection, viability); uninduced reporter light, run 1, well a: higher = more light from the Notch target reporter without active Notch. Call rule: 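Hit if the duplicate-averaged log2 ratio of induced to control-promoter light gives a plate-wise z beyond ±2, or induced to uninduced beyond ±1.8; weak-control or discordant-duplicate wells dropped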. Meaning of the calls: active = modifier hit (raised or lowered Notch signal); inactive = not a hit.
The deposit covers about 22,000 reagents; below is a random part of those with a known target gene and a result. Of all reagents, 403 (1.9%) were called active. 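Unnormalised raw counts per well; ratio z-scores behind the hit calls and whether each hit raises or lowers signal are not deposited.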 A plus sign joins genes that one reagent is predicted to hit. No sequences are given here. Not given: the amount of reagent.

| predicted target | amplicon | induced reporter light, run 1, well a | induced reporter light, run 1, well b | control promoter light, run 1, well a | control promoter light, run 1, well b | uninduced reporter light, run 1, well a | activity call |
| --- | --- | --- | --- | --- | --- | --- | --- |
| Ugt49C1 (UDP-glycosyltransferase family 49 member C1) | DRSC04252 | 41380 | 42105 | 45280 | 36745 | 2930 | inactive |
| garz (gartenzwerg) | DRSC07193 | 80560 | 70760 | 1.19e5 | 93785 | 6200 | inactive |
| Amacr (Alpha-methylacyl-CoA racemase) | DRSC03198 | 2.87e5 | 2.82e5 | 2.43e5 | 2.38e5 | 16455 | inactive |
| REG (Proteasome regulator gamma) | DRSC20273 | 1.03e5 | 1.00e5 | 1.73e5 | 1.77e5 | 8050 | inactive |
| sowah (sosondowah) | DRSC09186 | 2.06e5 | 2.46e5 | 2.45e5 | 2.25e5 | 15310 | inactive |
| sowah (sosondowah) | DRSC09758 | 80220 | 90790 | 62690 | 32595 | 9395 | inactive |
| CG11977 | DRSC14454 | 74350 | 90650 | 71780 | 48760 | 6350 | inactive |
| BobA | DRSC09889 | 1.74e5 | 1.98e5 | 2.54e5 | 1.93e5 | 8255 | inactive |
| sphinx1 | DRSC10993 | 1.73e5 | 1.69e5 | 1.88e5 | 1.84e5 | 7615 | inactive |
| eIF2alpha (eukaryotic translation initiation factor 2 subunit alpha) | DRSC20327 | 7865 | 6185 | 8675 | 5255 | 350 | inactive |
| CG32485 | DRSC22666 | – | – | – | – | – | inactive |
| CG6163 | DRSC10595 | 1.69e5 | 1.60e5 | 2.00e5 | 1.49e5 | 7410 | inactive |
| lgs (legless) | DRSC17152 | 1.83e5 | 1.63e5 | 2.25e5 | 2.00e5 | 13360 | inactive |
| CG42286 (retired record) | DRSC14357 | 32775 | 28735 | 34410 | 21300 | 4405 | inactive |
| CG3842 | DRSC18326 | 1.64e5 | 1.48e5 | 3.12e5 | 2.26e5 | 11730 | inactive |
| CG31948 | DRSC00740 | 1.36e5 | 1.13e5 | 1.09e5 | 76845 | 10220 | inactive |
| Cht7 (Chitinase 7) | DRSC08538 | 1.74e5 | 1.36e5 | 1.76e5 | 65550 | 15140 | inactive |
| CG33267 | DRSC09120 | 1.95e5 | 2.14e5 | 2.57e5 | 2.27e5 | 12232 | inactive |
| CG42307 + mus312 | DRSC11008 | 1.77e5 | 1.96e5 | 1.47e5 | 1.09e5 | 6300 | active |
| U2af50 (U2 small nuclear riboprotein auxiliary factor 50) | DRSC20297 | 74740 | 83245 | 97500 | 81315 | 3850 | inactive |
| Csp (Cysteine string protein) | DRSC11860 | 1.31e5 | 1.30e5 | 64320 | 77210 | 9355 | inactive |
| cGlr2 (cGAS-like receptor 2) | DRSC04017 | 1.20e5 | 1.49e5 | 2.02e5 | 2.14e5 | 8020 | inactive |
| cysu (Curly Su) | DRSC15902 | 24320 | 25195 | 23715 | 26150 | 1985 | inactive |
| ptc (patched) | DRSC05117 | 21135 | 28960 | 38110 | 48165 | 2230 | inactive |
| ptc (patched) | DRSC07669 | 1.80e5 | 2.09e5 | 2.19e5 | 2.29e5 | 16260 | inactive |
| Nil (Nilkantha) | DRSC15953 | 1.49e5 | 1.62e5 | 1.95e5 | 2.06e5 | 11910 | inactive |
| AP-2alpha (Adaptor Protein complex 2, alpha subunit) | DRSC00800 | 57300 | 66785 | 49370 | 39225 | 5790 | inactive |
| Atf3 (Activating transcription factor 3) | DRSC17225 | 13265 | 14200 | 23475 | 23742 | 4232 | inactive |
| CG32944 | DRSC12138 | 1.42e5 | 1.26e5 | 1.05e5 | 88430 | 8640 | inactive |
| CG32944 | DRSC12341 | 1.62e5 | 1.11e5 | 1.38e5 | 1.57e5 | 10200 | inactive |
| CG12343 | DRSC06135 | 1.45e5 | 1.12e5 | 1.79e5 | 1.41e5 | 9875 | inactive |
| CG4537 | DRSC02756 | 1.21e5 | 1.62e5 | 85135 | 92810 | 18800 | inactive |
| CG7194 | DRSC10784 | 1.69e5 | 1.39e5 | 1.59e5 | 1.79e5 | 4905 | inactive |
| tamo | DRSC04446 | 1.50e5 | 1.82e5 | 1.05e5 | 1.32e5 | 12930 | inactive |
| shop (shopper) | DRSC20030 | 1.38e5 | 1.24e5 | 1.13e5 | 68170 | 10085 | inactive |
| Sin1 (SAPK-interacting protein 1) | DRSC05965 | 1.41e5 | 1.30e5 | 1.20e5 | 1.39e5 | 9995 | inactive |
| fs(1)M3 (female sterile (1) M3) | DRSC18381 | 2.21e5 | 1.99e5 | 2.56e5 | 2.23e5 | 15440 | inactive |
| Mmp2 (Matrix metalloproteinase 2) | DRSC06698 | 1.59e5 | 1.67e5 | 2.51e5 | 2.19e5 | 16405 | inactive |
| CG14050 | DRSC18594 | 1.49e5 | 1.20e5 | 2.17e5 | 1.81e5 | 8180 | inactive |
| Acbp4 (Acyl-CoA binding protein 4) | DRSC11023 | 2.62e5 | 2.26e5 | 2.70e5 | 2.26e5 | 13490 | inactive |
| VAChT + ChAT | DRSC13312 | 89930 | 76165 | 1.10e5 | 1.16e5 | 10930 | inactive |
| CG1578 | DRSC19729 | 1.90e5 | 1.45e5 | 2.33e5 | 1.92e5 | 11260 | inactive |
| Nuak (Nuak family kinase) | DRSC14414 | 87470 | 70975 | 62630 | 50015 | 5390 | inactive |
| Nuak (Nuak family kinase) | DRSC14415 | 81825 | 1.15e5 | 48895 | 47940 | 7830 | inactive |
| Nuak (Nuak family kinase) | DRSC14416 | 73810 | 96950 | 81145 | 77825 | 5355 | inactive |
| CG1136 | DRSC08184 | 1.23e5 | 1.01e5 | 91650 | 24825 | 13370 | inactive |
| emei | DRSC10897 | 1.37e5 | 1.56e5 | 2.05e5 | 1.99e5 | 8030 | inactive |
| CG5808 | DRSC14124 | 96645 | 1.02e5 | 93600 | 1.10e5 | 9040 | inactive |
| CG8944 | DRSC20128 | 2.34e5 | 2.36e5 | 2.66e5 | 2.31e5 | 17370 | inactive |
| dac (dachshund) | DRSC03518 | 1.49e5 | 1.59e5 | 1.56e5 | 1.77e5 | 11480 | inactive |

Laid out differently: 3 of the entries above
predicted target,amplicon,"induced reporter light, run 1, well a","induced reporter light, run 1, well b","control promoter light, run 1, well a","control promoter light, run 1, well b","uninduced reporter light, run 1, well a",activity call
cGlr2 (cGAS-like receptor 2),DRSC04017,1.20e5,1.49e5,2.02e5,2.14e5,8020,inactive
cysu (Curly Su),DRSC15902,24320,25195,23715,26150,1985,inactive
ptc (patched),DRSC05117,21135,28960,38110,48165,2230,inactive
